Laboratory results: patent publication US11401278B2, “Macrocyclic indole derivatives” (The Broad Institute, Inc., priority 2017, dated 2022)
For part of its entries the source gives two or more results. Only these are listed. An entry can have further records. The values listed for one entry read as repeated measurements on other runs, samples or individuals.

Tests used:
AMO-1 = assay: Antiproliferation assay (Assay 7), AMO-1; conditions: read-out: Antiproli AMO-1 [M] IC50, CellTiter-Glo, 72 hours, several values per example, tested form: diethylamine salt
Protocol: (§1) Assessment of the Anti-Proliferative Effect of Compounds in Different Cell Lines
(§2) The impact of compounds on the proliferation of different cell lines was assessed using the CellTiter-Glo® Luminescent Cell Viability reagent from Promega (G7573).
(§3) The different cell lines were plated in culture medium (RPMI 1640 [Biochrom; #FG 1215] supplemented with 10% Fetal Calf Serum [Biochrom; #S 0415]) at a density of 3,300 cells (for suspension cells) or 800 cells (for adherent cells) in 30 μl/well in a sterile, solid black, flat bottom, polystyrene, TC-treated 384-well microplate (Corning #3571) using Multidrop Combi Reagent Dispenser. In parallel, cells were plated in a reference (day 0) plate for time zero determination. […]
(§4) On the next day, cells were treated with compounds (stock solution, 10 mM in DMSO) using the HP D300 Digital Dispenser in a concentration range of 3.3×10e-5 M (33 μM) to 5×10e-9 M (5 nM) in a single-dot curve with at least 16 dilutions and a DMSO concentration of 0.33%. […] The day 0 plate was measured by adding 30 μL/well of CTG solution (CellTiter-Glo® Luminescent Cell Viability reagent, Promega G7573) to time zero wells in the reference plate followed by a 10 minutes incubation and luminescence reading at 0.1 ms. using the PHERAstar FS microplate reader (BMG Labtech).
(§5) After 72 hours incubation, the treated plates were measured in the same way as the day 0 plate mentioned above. […]

HMC-1-8 = assay: Antiproliferation assay (Assay 7), HMC-1-8; conditions: read-out: Antiproli HMC-1-8 [M] IC50, CellTiter-Glo, 72 hours, several values per example
Protocol: as §1, §2, §3, §4, §5

Row | SMILES | IC50 (AMO-1) | IC50 (HMC-1-8)
1 | CCc1c2c(nn1C)C(CCN1CCOCC1)N(C)S(=O)(=O)CCCn1c(C(=O)O)c(CCCOc3cccc4cc(F)ccc34)c3ccc(Cl)c-2c31 (single isomer, unassigned) [Example 76] | < 5 nM and 9.6 nM | 
2 | CCc1c2c(nn1C)CNS(=O)(=O)CCCn1c(C(=O)O)c(CCCOc3cccc4cc(F)ccc34)c3ccc(Cl)c-2c31 |  | 13 µM and 1.8 µM
